AC50 data for 62 compounds are collected here from PubChem BioAssay AID445 (National Center for Advancing Translational Sciences (NCATS), 2006).

The assay is described as follows: IkB Signaling. Particulars: ABC-DLBCL IkBa-CBG/CBR dual luciferase ratio (green luciferase fused to IkBa over red control in OCI-Ly3 lymphoma cells), 4 h. In outline: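 Curves were fitted separately to fusion (green), unfused (red) and ratio luminescence, then classed by r2, magnitude and activity. Cells: OCI-Ly3, 4 h compound plus doxycycline at 37C; 10 uM MG-132 defined full response.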
Setting [1] is: measured here: control luc red channel unless noted.
[2] abbreviates: measured here: IkB-luc green channel.
[3] abbreviates: measured here: control luc red channel.

As usually defined, the AC50 is the concentration giving half of the maximal activity seen.

Some of the results follow. The main result of the screen is listed elsewhere. These columns were measured beside it and carry no call. The list favours compounds with an active or inconclusive main result. Words in brackets tell the shape of the fitted curve; partial curves, single points and poor fits give uncertain potencies.

Regarding `Fc1cccc(Cl)c1CSc1nnnn1-c1ccc2c(c1)OCO2`, under setting [1], the AC50 was 20 µM [falling, partial curve].

Consider `CNc1nc(Oc2ccc(=O)[nH]n2)nc(N2CCOCC2)n1`, for which the AC50 under setting [1] was 25.1 µM [rising, partial curve, poor fit].

Turning to `COC(=O)C(CC(C)C)NC(=O)c1cc(OC)c(OC)c(OC)c1` (centres undefined), under setting [1], the AC50 is 20 µM [falling, partial curve].

Consider `CC1=C(C#N)C(NC(=O)C2CC2)(C(F)(F)F)C(=O)N1` (centres undefined), for which the AC50 under setting [1] was 31.6 µM [falling, single point].

For the compound `COc1ccc(-n2cc(C(=O)Nc3ccccc3C#N)c3ccccc3c2=O)cc1`, the AC50 under setting [1] was 10 µM [falling, partial curve].

As for `CCOc1ccccc1NC(=O)c1nn(-c2ccc(OC)cc2)c(=O)c2c1c1ccccc1n2C`, the AC50 under setting [1] is 0.1 µM [rising, full curve, poor fit].

With `O=C(c1ccco1)N1CCN(c2ncnc3c(-c4ccccc4)nsc23)CC1`, the AC50 under setting [1] is 39.8 µM [falling, single point].

As for `Cc1nc(SCCOc2ccc(Cl)cc2)[nH]c(=O)c1Cc1ccccc1`, the AC50 under setting [1] was 0.316 µM [falling, full curve, poor fit].

With `COc1cccc(-n2cc(C(=O)Nc3ccccc3C(N)=O)c3ccccc3c2=O)c1`, the AC50 under setting [1] was 20 µM [falling, single point].

In the case of `CCOc1ccc(NC(=O)Cn2c(=O)n(Cc3ccccc3)c(=O)c3c4c(sc32)CN(C(C)=O)CC4)cc1`, under setting [1], the AC50 is 39.8 µM [falling, single point].

On to `Cc1ccccc1CNC(=O)Cn1cc2c(n1)-c1c(oc(C(=O)N3CCCC3)c1C)CC2`, for which, under setting [1], the AC50 was 25.1 µM [falling, partial curve].

`COc1ccc2nc(NC(=O)c3nc(SCc4cccc(C)c4)ncc3Cl)sc2c1`: under setting [1], the AC50 was 6.31 µM [rising, single point].

Turning to `COc1cc(OC)cc(C(=O)Nc2cccc(NC(C)=O)c2)c1`, the AC50 under setting [1] is 12.6 µM [falling, partial curve].

As to `CC1CCCCN1S(=O)(=O)c1ccc2[nH]c(=O)cc(C(=O)NCCc3ccc(Cl)cc3)c2c1` (centres undefined), the AC50 under setting [1] was 3.16 µM [rising, single point].

Turning to `COC(=O)c1c(NC(=O)c2c(OC)cccc2OC)sc2c1CCCC2`, under setting [1], the AC50 was 20 µM [falling, single point].

With `CC(=O)c1cccc(Nc2ncnc3c2cnn3-c2cccc(Cl)c2)c1`, under setting [1], the AC50 was 0.316 µM [falling, full curve, poor fit].

For the compound `COc1cccc(NC(=O)CC2Oc3ccccc3NC2=O)c1` (centres undefined), the AC50 under setting [1] was 39.8 µM [falling, single point].

Regarding `COc1cccc(NC(=O)c2oc3ccc(S(=O)(=O)N4CCOCC4)cc3c2C)c1`, under setting [1], the AC50 is 12.6 µM [falling, partial curve].

`CC(C)OCCCNC(=O)CN1C(=O)CSc2ccc(S(=O)(=O)N3CCOCC3)cc21`: the AC50 under setting [1] is 0.126 µM [rising, full curve, poor fit].

In the case of `CCOC(=O)c1[nH]c(C)c(C(=O)Nc2ccc(F)cc2)c1C`, the AC50 runs as follows: under setting [2], 39.8 µM [rising, single point]; under setting [3], 31.6 µM [rising, single point].

For the compound `CC(=O)Nc1c(C(=O)Nc2ccccc2F)oc2ccccc12`, the AC50 under setting [1] is 2.51 µM [falling, full curve, poor fit].

Take `CC(C)CNC(=O)NC1C(NC(=O)NCC(C)C)N(C)C(=O)N1C` (centres undefined): the AC50 under setting [1] is 0.0631 µM [falling, full curve].

As for `COc1cc(-c2nc3cnccn3c2Nc2ccc(C(C)C)cc2)ccc1O`, under setting [1], the AC50 is 15.8 µM [falling, partial curve].

With `COc1ccc(OCc2nnc3n2N=C(c2ccc(OC)cc2)CS3)cc1`, the AC50 under setting [1] is 25.1 µM [falling, single point].

On to `Cc1ccccc1NC(=O)CSc1nnc(-c2cccc(Cl)c2)o1`, for which the AC50 under setting [1] is 5.01 µM [falling, partial curve].

As to `COc1ccc(CNC(=O)C(C)n2nc(C)c3sc4ccccc4c3c2=O)cc1OC` (centres undefined), the AC50 under setting [1] was 25.1 µM [falling, single point].

In the case of `Cc1csc2nc(-c3cccc(NC(=O)c4ccccc4F)c3)cn12`, the AC50 under setting [1] is 39.8 µM [falling, single point].

As for `CC(=O)c1c(C)oc2ccc(N(C(=O)c3ccncc3)S(=O)(=O)c3ccc(F)cc3C)cc12`, the AC50 under setting [1] was 10 µM [falling, partial curve].

Take `Cc1cccc(C(=O)Nc2sc3c(c2C(=O)O)CCCC3)c1`: the AC50 under setting [1] is 0.00316 µM [falling, full curve].

Regarding `CCCOc1ccc(CNC(=O)Cn2c(=O)oc3ccccc32)cc1`, the half-maximal activity concentration (AC50) under setting [1] is 39.8 µM [falling, single point].

With `COc1cccc(CNC(=O)c2cccc(NC(=O)c3nsc4ccccc34)c2)c1`, the AC50 under setting [1] is 39.8 µM [falling, single point].

With `CCOc1ccc(OCC)c(NC(=O)CSc2nc3c(c(=O)n(C)c(=O)n3C)n2C(C)C)c1`, the AC50 under setting [1] was 3.16 µM [falling, single point].

With `CCCc1cc2c(=O)c(-c3ccccn3)c(C)oc2cc1O`, the AC50 under setting [1] is 15.8 µM [rising, partial curve].

`Cc1ccc(CNC(=O)c2cnn(-c3ccc(F)cc3F)c2C2CCN(C(=O)OC(C)(C)C)CC2)cc1`: the AC50 under setting [1] is 10 µM [falling, partial curve].

As for `COc1ccc(NS(=O)(=O)c2ccc3c(c2)n(C)c(=O)c(=O)n3C)cc1Cl`, the concentration at half-maximal activity (AC50) under setting [1] was 15.8 µM [falling, partial curve].

As for `O=C(c1ccco1)N(CCCN1CCOCC1)c1nc(-c2ccc(F)cc2)cs1`, under setting [1], the AC50 is 25.1 µM [falling, single point].

Turning to `COc1ccc(-c2nc(SCC(=O)NCC3CCCO3)c(-c3ccc(Cl)cc3)[nH]2)cc1` (centres undefined), the AC50 under setting [1] was 3.98 µM [falling, partial curve].

For `Cc1c(Cl)ccc2sc(NC(=O)c3ccc(S(=O)(=O)N4CCCC4)cc3)nc12`, the AC50 under setting [1] was 0.398 µM [falling, full curve].

In the case of `O=C(NC1CCCCC1)Sc1ccc(Cl)cc1`, the AC50 is 39.8 µM [rising, single point] under setting [2] and 39.8 µM [rising, single point] under setting [3].

Regarding `CCCNC(=O)CCn1nc(-c2ccc(C)cc2)c2ccccc2c1=O`, the AC50 under setting [1] was 39.8 µM [falling, single point].

As to `Cc1nn(Cc2ccccc2)c(C)c1NC(=O)c1cc2nc(-c3ccco3)cc(C(F)(F)F)n2n1`, the AC50 under setting [1] was 20 µM [falling, single point].

With `c1ccc(CSc2nnc(-c3ccco3)n2Cc2ccccc2)cc1`, under setting [1], the AC50 is 15.8 µM [falling, partial curve].

For the compound `Cc1ccc2ncc(C(=O)Nc3cccc(C(F)(F)F)c3)c(=O)n2c1`, under setting [1], the AC50 is 3.98 µM [rising, full curve].

With `COc1cc(C(=O)Nc2cccc(OCc3cc(=O)n4c(C)csc4n3)c2)cc(OC)c1OC`, the AC50 under setting [1] was 15.8 µM [falling, partial curve].

As for `COc1ccc(S(=O)(=O)N2CCC(c3nnc(-c4ccccc4C)o3)CC2)c(OC)c1`, the AC50 under setting [1] was 39.8 µM [falling, single point].

Turning to `Cc1noc2ncnc(N3CCCC(C(=O)NCCC(C)C)C3)c12` (centres undefined), the AC50 under setting [1] is 15.8 µM [falling, partial curve].

Regarding `Cc1ccc(S(=O)(=O)c2c(Nc3ccccc3)sc(C(=O)c3ccc4c(c3)OCO4)c2N)cc1`, under setting [1], the AC50 is 3.98 µM [falling, full curve, poor fit].

Turning to `CCCCN(CCCC)C(=O)c1cc2c(=O)n3ccccc3nc2s1`, the AC50 under setting [1] is 39.8 µM [falling, single point].

On to `Cc1cccc(N2CCN(S(=O)(=O)c3ccc(F)c(C(=O)Nc4cccc(Cl)c4C)c3)CC2C)c1` (centres undefined), for which, under setting [1], the AC50 was 39.8 µM [falling, partial curve, poor fit].

Regarding `O=S(=O)(Nc1ccc(-c2ccc(N3CCCCCC3)nn2)cc1)c1ccc(C(F)(F)F)cc1`, the AC50 under setting [1] is 7.94 µM [falling, partial curve].

Take `COc1ccc(Nc2ncnc3c2cnn3C)c(OC)c1`: the AC50 under setting [1] was 12.6 µM [rising, partial curve].

`O=C(NCCSc1c(-c2ccc(Cl)cc2)[nH]c2ccccc12)c1ccc(S(=O)(=O)N2CCOCC2)cc1`: the AC50 under setting [1] was 2.51 µM [falling, full curve].

Consider `CCN(CCNC(=O)C1CCCN(Cc2nc(-c3ccc(OC)cc3)oc2C)C1)c1ccccc1` (centres undefined), for which the AC50 under setting [1] is 15.8 µM [falling, partial curve].

With `Cc1ccc(-n2nc3c(=O)n(CCCC(=O)NCc4ccc(F)cc4)nc(C)c3c2C)cc1`, under setting [1], the AC50 was 12.6 µM [falling, partial curve].

Turning to `Cc1cc(C(F)(F)F)c2c(N)c(C(=O)Nc3c(Cl)cccc3Cl)sc2n1`, under setting [1], the AC50 is 39.8 µM [falling, single point].

Turning to `CCn1c(N2CCC(Cc3ccccc3)CC2)nc2c1c(=O)[nH]c(=O)n2C`, under setting [1], the AC50 was 31.6 µM [falling, partial curve].

On to `Cc1ccc2c(c1)-c1onc(C(=O)N3CCN(c4cccc(C)c4C)CC3)c1CO2`, for which, under setting [1], the AC50 is 1.58 µM [rising, full curve].

Take `CC(C)c1ccc(NC(=O)c2cc3c(=O)oc4ccccc4c3s2)cc1`: under setting [1], the concentration at half-maximal activity (AC50) is 0.2 µM [rising, full curve, poor fit].

Regarding `CCCC12CN3CC(C)(CN(C1)C3c1ccc(CC)cc1)C2=O` (centres undefined), the AC50 under setting [1] is 20 µM [falling, single point].

Consider `CCOC(=O)c1ccc2ncc(C(=O)OCC)c(NCCc3ccc(OC)c(OC)c3)c2c1`, for which the AC50 under setting [1] is 25.1 µM [falling, partial curve].

Consider `CCN1CCN(C(=O)Cn2ncc3c4ccccc4n(Cc4ccccc4F)c3c2=O)CC1`, for which the AC50 under setting [1] is 25.1 µM [falling, single point].

In the case of `Cc1cccc(N2CCN(C(c3ccc(F)cc3)c3nnc(-c4ccccc4)o3)CC2)c1C` (centres undefined), under setting [1], the AC50 is 10 µM [falling, partial curve].
